The list shows a part of the results.

Protein sequences, listed by entry. Tags and fused reporters are not part of them. Lines headed by an entry give the natural chain unless they say otherwise; changes in a name come on top.
UniProt Q9Y4E8: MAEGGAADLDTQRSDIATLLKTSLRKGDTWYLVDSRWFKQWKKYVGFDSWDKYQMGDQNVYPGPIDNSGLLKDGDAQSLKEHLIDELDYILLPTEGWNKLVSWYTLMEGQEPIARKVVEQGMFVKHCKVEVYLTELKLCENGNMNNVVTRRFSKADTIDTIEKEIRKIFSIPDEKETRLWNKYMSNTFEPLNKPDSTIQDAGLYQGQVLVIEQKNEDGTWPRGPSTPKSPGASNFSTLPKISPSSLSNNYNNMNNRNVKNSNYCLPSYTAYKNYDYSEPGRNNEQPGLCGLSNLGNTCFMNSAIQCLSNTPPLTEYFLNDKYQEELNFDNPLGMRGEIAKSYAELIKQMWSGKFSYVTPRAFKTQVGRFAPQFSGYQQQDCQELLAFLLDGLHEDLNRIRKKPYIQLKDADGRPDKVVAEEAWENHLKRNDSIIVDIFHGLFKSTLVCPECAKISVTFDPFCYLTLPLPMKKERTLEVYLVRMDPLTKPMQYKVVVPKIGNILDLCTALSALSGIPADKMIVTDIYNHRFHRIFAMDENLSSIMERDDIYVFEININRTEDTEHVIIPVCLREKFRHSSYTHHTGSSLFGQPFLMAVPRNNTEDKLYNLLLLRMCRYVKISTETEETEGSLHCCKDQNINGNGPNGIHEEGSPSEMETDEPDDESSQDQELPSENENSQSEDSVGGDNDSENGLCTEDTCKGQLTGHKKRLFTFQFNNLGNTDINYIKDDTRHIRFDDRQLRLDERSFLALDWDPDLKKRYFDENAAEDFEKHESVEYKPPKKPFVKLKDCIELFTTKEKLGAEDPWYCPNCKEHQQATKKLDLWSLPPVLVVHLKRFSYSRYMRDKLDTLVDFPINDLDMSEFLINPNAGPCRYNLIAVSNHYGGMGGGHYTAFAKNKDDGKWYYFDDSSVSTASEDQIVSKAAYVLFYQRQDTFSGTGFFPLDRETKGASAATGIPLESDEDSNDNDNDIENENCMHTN
UniProt Q8NBZ7: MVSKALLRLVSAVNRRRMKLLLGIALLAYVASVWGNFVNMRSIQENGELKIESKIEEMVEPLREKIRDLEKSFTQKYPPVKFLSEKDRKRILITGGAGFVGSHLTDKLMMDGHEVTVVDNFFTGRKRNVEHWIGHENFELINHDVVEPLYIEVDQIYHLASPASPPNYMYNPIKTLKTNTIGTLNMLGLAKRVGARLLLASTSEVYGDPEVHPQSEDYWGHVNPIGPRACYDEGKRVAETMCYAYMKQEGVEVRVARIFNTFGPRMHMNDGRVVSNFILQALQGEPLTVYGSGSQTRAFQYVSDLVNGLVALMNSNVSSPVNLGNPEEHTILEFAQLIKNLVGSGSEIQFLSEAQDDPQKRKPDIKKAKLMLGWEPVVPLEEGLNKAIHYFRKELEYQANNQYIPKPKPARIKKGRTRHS
UniProt Q9BRT2: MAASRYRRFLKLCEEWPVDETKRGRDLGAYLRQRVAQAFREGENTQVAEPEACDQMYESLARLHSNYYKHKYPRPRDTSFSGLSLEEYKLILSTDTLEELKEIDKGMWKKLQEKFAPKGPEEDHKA
UniProt O94763, whole entry, looked up: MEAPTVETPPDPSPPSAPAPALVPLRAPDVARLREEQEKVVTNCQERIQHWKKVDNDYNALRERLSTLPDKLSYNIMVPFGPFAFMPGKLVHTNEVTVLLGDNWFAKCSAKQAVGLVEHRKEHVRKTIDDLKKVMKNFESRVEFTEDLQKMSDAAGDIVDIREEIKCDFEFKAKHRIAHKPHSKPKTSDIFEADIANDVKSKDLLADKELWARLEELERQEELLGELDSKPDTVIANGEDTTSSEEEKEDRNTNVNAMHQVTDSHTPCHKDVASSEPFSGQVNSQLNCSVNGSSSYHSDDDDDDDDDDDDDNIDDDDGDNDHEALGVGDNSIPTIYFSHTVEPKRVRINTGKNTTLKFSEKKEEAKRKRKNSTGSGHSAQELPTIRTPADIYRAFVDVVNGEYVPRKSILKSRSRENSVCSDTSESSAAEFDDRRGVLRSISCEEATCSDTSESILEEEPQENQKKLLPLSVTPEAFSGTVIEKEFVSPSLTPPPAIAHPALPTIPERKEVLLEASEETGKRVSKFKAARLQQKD
UniProt P06132: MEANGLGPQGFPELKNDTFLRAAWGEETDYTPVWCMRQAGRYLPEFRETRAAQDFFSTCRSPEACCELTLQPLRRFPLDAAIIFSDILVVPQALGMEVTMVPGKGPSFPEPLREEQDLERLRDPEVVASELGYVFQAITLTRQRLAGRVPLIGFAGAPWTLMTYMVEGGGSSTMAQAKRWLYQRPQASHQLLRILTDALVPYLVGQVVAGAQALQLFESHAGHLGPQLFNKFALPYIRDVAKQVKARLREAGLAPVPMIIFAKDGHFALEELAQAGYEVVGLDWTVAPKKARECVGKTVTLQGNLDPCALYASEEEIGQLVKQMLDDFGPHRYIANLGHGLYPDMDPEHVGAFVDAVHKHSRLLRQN
UniProt Q9Y5K5, whole entry, looked up: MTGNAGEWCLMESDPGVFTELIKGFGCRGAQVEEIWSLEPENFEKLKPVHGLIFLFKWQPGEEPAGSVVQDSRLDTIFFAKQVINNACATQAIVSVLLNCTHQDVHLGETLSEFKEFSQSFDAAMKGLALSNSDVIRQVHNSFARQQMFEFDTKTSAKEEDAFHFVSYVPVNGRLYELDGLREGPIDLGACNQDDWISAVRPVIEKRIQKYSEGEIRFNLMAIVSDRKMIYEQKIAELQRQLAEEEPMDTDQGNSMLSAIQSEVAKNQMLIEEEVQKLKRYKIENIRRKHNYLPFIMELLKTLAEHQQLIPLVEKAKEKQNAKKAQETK
UniProt P47985: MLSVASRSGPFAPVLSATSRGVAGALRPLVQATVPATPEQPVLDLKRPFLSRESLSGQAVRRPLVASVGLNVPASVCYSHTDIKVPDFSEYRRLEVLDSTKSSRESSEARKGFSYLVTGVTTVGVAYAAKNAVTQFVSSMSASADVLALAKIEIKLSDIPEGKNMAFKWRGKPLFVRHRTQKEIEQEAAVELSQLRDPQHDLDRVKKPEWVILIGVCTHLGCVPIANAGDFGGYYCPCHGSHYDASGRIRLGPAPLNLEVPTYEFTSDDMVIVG
UniProt Q9BZX2: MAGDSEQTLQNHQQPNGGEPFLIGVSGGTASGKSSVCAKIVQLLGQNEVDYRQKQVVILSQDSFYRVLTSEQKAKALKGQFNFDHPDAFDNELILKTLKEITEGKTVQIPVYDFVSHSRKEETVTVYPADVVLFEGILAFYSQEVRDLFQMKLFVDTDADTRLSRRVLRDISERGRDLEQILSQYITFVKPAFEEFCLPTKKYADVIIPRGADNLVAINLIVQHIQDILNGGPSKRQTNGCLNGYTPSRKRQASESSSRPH
UniProt Q96BW1: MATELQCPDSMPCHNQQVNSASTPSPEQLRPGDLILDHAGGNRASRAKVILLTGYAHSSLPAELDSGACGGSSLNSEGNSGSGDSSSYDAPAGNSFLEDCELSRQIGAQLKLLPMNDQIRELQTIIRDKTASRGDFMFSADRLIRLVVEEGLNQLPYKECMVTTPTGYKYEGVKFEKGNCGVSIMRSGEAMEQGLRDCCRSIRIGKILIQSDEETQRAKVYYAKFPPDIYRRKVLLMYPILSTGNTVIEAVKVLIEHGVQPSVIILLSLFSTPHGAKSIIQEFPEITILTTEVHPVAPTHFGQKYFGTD
UniProt P51809, whole entry, looked up: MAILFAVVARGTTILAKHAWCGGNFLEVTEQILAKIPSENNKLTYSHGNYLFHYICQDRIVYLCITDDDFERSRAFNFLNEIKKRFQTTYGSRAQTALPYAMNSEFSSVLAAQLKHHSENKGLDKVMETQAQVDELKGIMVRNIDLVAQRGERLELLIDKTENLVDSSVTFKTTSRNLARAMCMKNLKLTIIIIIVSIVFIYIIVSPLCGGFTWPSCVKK
UniProt Q08AM6: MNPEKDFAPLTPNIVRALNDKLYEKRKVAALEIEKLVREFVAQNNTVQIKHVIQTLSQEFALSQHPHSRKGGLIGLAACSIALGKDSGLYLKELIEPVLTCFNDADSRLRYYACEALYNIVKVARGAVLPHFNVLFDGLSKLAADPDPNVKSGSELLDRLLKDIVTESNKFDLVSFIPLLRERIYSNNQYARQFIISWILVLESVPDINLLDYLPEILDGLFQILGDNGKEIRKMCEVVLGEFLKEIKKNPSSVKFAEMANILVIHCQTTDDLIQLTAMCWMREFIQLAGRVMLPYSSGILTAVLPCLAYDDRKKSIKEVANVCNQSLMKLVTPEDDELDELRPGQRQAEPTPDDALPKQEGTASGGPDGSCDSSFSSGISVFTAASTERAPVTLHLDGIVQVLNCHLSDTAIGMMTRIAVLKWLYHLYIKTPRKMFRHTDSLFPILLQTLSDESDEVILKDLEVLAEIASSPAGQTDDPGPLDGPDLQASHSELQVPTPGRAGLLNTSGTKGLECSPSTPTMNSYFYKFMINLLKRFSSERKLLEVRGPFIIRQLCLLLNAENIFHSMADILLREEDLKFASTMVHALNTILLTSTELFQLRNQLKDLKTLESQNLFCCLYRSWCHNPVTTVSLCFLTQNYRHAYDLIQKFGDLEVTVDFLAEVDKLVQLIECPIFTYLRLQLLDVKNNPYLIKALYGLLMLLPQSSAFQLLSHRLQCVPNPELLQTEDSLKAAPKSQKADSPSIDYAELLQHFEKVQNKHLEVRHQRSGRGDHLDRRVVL
UniProt Q9UHP3: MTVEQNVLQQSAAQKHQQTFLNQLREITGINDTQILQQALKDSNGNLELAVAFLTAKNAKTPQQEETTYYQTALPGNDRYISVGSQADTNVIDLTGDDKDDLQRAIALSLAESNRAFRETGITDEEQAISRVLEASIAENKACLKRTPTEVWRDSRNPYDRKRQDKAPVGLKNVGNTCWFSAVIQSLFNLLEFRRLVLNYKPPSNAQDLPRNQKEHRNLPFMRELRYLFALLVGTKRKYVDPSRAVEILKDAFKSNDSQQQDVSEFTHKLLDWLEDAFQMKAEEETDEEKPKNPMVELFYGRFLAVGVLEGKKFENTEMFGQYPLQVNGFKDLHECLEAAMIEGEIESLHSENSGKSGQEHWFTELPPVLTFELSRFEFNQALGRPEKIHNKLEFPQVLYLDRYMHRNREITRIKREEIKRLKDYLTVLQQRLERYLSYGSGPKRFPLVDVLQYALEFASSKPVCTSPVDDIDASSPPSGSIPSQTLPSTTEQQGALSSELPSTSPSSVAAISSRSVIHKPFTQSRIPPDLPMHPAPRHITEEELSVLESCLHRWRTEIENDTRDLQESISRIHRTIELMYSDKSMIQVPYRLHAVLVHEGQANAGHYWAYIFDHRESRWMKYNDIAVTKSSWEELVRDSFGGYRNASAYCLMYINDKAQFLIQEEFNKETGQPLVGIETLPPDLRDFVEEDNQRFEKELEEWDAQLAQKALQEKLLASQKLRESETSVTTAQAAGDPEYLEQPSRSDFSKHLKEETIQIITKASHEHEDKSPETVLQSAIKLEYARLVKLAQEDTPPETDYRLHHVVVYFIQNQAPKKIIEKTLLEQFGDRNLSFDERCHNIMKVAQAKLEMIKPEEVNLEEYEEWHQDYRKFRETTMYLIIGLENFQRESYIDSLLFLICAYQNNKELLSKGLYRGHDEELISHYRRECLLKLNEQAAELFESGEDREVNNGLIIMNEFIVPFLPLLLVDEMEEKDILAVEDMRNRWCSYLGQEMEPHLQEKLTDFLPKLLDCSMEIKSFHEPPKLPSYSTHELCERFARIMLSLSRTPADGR

Compound in one assay: C1=CC2=NC=CN=C2C=C1/C=C/3\C(=O)NC(=O)S3
Put plainly: log2 fold change, soluble protein after heating vs DMSO (PISA); higher = thermal stabilisation; K562 cells, 10 uM, 30 min; active = over 0.2 and 3.5 SD of the protein, either way, in both replicates (recomputed). The gist of the method:
(§1)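 Soluble protein was defined as the supernatant after 21,000xg for 90 min. It came from K562 cells at 2×10^6 cells/mL given 10 μM compound for 30 min, heated in aliquots for 3 min across 48°C-58°C, pooled, and extracted in PBS with 0.5% NP-40 at 4°C, and was quantified by TMTpro 16plex LC-MS/MS with equalised channel sums. Thermal stability against control samples, from duplicates, is reported as log2 fold change.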
For USP16 (UniProt Q9Y5T5), the log2 fold change was inactive: 0.275. Still for that read-out and setting: then USP15 (UniProt Q9Y4E8), with inactive: 0.031; and UXS1 isoform 2 (UniProt Q8NBZ7), with inactive: 0.007; and UGCG (UniProt Q16739), with inactive: 0.137. On the same count and under the same terms, then USP34 (UniProt Q70CQ2), with inactive: -0.013; and UQCC2 (UniProt Q9BRT2), with inactive: 0.024.

Consider UNC93B1 (UniProt Q9H1C4), for which the log2 fold change was inactive: 0.07.

With UBR2 (UniProt Q8IWV8), the log2 fold change is inactive: 0.046. On the same count and under the same terms, as for URI1 (UniProt O94763), the figure is inactive: -0.02; as for UXT isoform 2 (UniProt Q9UBK9), inactive: -0.044; as for UROD (UniProt P06132), inactive: -0.008. The same measure, in the same setting: as for UCHL5 (UniProt Q9Y5K5), the figure is inactive: 0.008; as for UCHL5 isoform 3 (UniProt Q9Y5K5), inactive: 0.125; as for UQCRFS1 (UniProt P47985), inactive: 0.023. With UBXN4 (UniProt Q92575), the log2 fold change is inactive: 0.049. Consider UCK2 (UniProt Q9BZX2), for which the log2 fold change is inactive: -0.027.

Compound in a further assay: C1=CC=C(C=C1)C2=NC(=C(N2)C3=CC=NC=C3)C4=CC(=C(C=C4)Cl)O
The description is as above. The gist of the method:
as §1
With USF1 (UniProt P22415), the log2 fold change is inactive: 0.103. Still for that read-out and setting: as for UHRF1BP1L (UniProt A0JNW5), the figure is inactive: -0.009; as for VBP1 (UniProt P61758), inactive: -0.048; as for UTP15 (UniProt Q8TED0), inactive: -0.014. Turning to UPRT (UniProt Q96BW1), the log2 fold change is inactive: -0.013.

For UGP2 (UniProt Q16851), the log2 fold change is inactive: 0.003. Still for that read-out and setting: then UGT8 (UniProt Q16880), with inactive: 0.241; and UMPS (UniProt P11172), with inactive: 0.046; and UPF3B (UniProt Q9BZI7), with inactive: -0.019. Still for that read-out and setting: as for UVRAG (UniProt Q9P2Y5), the figure is inactive: -0.008. For VAMP7 (UniProt P51809), the log2 fold change was inactive: 0.065. With UQCRC2 (UniProt P22695), the log2 fold change was inactive: 0.002.

Regarding USP20 (UniProt Q9Y2K6), the log2 fold change is inactive: -0.056.

Take VCP (UniProt P55072): the log2 fold change was inactive: 0.013.

Turning to URI1 isoform 4 (UniProt O94763), the log2 fold change is inactive: -0.052. On the same count and under the same terms, then USO1 isoform 2 (UniProt O60763), with inactive: 0.004. With UFC1 (UniProt Q9Y3C8), the log2 fold change is inactive: 0.025. With VAMP4 (UniProt O75379), the log2 fold change is inactive: 0.017.

In the case of UBL4A (UniProt P11441), the log2 fold change is inactive: -0.021. The same measure, in the same setting: then UFSP2 (UniProt Q9NUQ7), with inactive: -0.015. VAC14 (UniProt Q08AM6): the log2 fold change is inactive: -0.012. On to USP25 isoform 3 (UniProt Q9UHP3), for which the log2 fold change was inactive: -0.024. For the target USP3 (UniProt Q9Y6I4), the log2 fold change was inactive: 0.057. The same measure, in the same setting: as for USP16 (UniProt Q9Y5T5), the figure is inactive: 0.12; as for USP15 (UniProt Q9Y4E8), inactive: 0; as for UXS1 isoform 2 (UniProt Q8NBZ7), inactive: -0.103. For the target UGCG (UniProt Q16739), the log2 fold change is inactive: 0.107. On the same count and under the same terms, as for USP34 (UniProt Q70CQ2), the figure is inactive: 0.027; as for UQCC2 (UniProt Q9BRT2), inactive: -0.134; as for UNC93B1 (UniProt Q9H1C4), inactive: 0.129. With UBR2 (UniProt Q8IWV8), the log2 fold change is inactive: -0.08. Same read-out and setting: then URI1 (UniProt O94763), with inactive: -0.059; and UXT isoform 2 (UniProt Q9UBK9), with inactive: -0.053.

Regarding UROD (UniProt P06132), the log2 fold change was inactive: 0.012.

Turning to UCHL5 (UniProt Q9Y5K5), the log2 fold change is inactive: 0.02. Still for that read-out and setting: then UCHL5 isoform 3 (UniProt Q9Y5K5), with inactive: -0.11; and UQCRFS1 (UniProt P47985), with inactive: -0.033. The same measure, in the same setting: as for UBXN4 (UniProt Q92575), the figure is inactive: 0.053; as for UCK2 (UniProt Q9BZX2), inactive: -0.017.

For the origin of these results see the supplement of paper PMC10849652.
